Where two headings read alike, the source gives them in different places. These are yes or no findings as the source states them, for the method shown. In cells and extracts the contact can be indirect. A yes stands for co-enrichment or nearness to the bait. Other partners may have been found. For part of these data: Sequences can lack the tags named with a protein.
What was measured:
[1] = target: WT-TFEB FLAG (ectopically expressed transcription factor EB) (UniProt P19484); assay: affinity purification with mass spectrometry
[2] = target: WT-TFEB FLAG (ectopically expressed transcription factor EB) (UniProt P19484); assay: affinity purification with mass spectrometry; remark: listed apart in the source

Amino acid sequences for entries named in this document (tags omitted). Residues count along the entry.
UniProt P19484: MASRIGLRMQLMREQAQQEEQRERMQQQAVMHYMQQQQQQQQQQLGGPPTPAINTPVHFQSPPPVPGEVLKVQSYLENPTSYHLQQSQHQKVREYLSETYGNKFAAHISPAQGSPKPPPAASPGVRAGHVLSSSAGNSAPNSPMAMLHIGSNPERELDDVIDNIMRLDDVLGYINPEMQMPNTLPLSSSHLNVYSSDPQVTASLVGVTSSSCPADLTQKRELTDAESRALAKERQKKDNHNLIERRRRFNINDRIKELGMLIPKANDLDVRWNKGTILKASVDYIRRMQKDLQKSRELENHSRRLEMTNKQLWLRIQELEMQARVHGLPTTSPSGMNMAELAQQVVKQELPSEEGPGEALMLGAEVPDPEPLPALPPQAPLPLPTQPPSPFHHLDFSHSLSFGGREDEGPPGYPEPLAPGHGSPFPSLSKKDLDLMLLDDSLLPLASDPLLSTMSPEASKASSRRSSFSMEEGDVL
UniProt P40763: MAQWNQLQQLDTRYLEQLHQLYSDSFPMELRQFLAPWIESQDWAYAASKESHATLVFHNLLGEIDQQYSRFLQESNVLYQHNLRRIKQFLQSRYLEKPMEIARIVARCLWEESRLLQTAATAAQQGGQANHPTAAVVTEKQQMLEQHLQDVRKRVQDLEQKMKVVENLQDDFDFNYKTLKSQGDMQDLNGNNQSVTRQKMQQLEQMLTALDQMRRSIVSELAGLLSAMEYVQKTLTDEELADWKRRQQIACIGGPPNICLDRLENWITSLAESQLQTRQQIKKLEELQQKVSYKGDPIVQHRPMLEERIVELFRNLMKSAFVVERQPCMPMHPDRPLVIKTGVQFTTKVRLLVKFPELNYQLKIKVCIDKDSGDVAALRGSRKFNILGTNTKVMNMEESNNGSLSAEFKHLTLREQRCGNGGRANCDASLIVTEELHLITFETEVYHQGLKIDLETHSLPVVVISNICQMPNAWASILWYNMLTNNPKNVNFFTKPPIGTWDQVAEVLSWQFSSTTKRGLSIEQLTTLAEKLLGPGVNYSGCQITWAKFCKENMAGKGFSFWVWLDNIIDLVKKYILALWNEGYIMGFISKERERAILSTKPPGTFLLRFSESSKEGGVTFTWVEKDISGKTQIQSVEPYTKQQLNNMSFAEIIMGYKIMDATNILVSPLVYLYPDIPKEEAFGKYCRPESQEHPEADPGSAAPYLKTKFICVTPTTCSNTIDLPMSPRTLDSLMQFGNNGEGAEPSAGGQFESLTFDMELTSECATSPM
UniProt P63104: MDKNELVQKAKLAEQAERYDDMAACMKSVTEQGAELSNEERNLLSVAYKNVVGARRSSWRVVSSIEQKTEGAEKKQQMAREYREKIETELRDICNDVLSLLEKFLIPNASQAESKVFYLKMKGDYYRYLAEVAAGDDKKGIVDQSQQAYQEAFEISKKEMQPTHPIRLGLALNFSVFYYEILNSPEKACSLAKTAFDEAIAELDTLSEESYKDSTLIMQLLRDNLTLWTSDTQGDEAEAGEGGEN
UniProt P31946: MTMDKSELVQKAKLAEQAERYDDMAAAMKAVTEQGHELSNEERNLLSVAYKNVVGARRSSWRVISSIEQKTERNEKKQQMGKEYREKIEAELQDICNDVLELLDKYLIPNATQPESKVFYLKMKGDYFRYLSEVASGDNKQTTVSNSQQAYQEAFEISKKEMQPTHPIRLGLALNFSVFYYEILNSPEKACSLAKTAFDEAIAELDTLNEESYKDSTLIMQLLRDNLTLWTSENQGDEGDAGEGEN
UniProt P38646, residues 47-679: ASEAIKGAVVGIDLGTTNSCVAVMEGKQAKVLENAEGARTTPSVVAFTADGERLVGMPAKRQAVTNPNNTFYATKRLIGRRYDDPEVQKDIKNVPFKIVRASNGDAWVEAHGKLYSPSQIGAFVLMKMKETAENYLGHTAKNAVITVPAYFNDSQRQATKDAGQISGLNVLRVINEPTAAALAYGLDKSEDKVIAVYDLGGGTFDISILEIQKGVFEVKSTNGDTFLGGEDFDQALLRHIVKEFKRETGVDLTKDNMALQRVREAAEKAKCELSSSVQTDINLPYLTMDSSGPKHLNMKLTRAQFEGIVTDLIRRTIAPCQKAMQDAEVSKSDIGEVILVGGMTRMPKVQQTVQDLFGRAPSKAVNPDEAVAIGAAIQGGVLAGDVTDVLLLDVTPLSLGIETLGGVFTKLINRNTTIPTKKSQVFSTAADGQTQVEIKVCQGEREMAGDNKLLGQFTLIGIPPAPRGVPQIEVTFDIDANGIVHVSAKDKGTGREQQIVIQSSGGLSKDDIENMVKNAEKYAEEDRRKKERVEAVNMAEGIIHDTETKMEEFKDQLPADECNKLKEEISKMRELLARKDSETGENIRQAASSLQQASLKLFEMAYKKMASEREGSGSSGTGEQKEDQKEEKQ
UniProt P62258: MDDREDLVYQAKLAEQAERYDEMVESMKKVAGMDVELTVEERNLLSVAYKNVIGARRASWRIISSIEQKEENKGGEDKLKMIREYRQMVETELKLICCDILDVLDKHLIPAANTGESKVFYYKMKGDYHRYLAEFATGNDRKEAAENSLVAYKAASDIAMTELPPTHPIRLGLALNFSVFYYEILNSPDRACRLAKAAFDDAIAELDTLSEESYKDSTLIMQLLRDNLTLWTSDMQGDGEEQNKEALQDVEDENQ

Row | binding [1] | binding [2] | Molecule
1 | binds | – | signal transducer and activator of transcription 3 (STAT3) (from UniProt P40763 1-770)
2 | binds | – | YWHAZ (14-3-3 protein) (from UniProt P63104 1-245)
3 | – | binds | LONP1 (found in the TFEB-FLAG interactome) (enzyme, UniProt P36776 68-959) FWEASSRGGGAFSGGEDASEGGAEEGAGGAGGSAGAGEGPVITALTPMTIPDVFPHLPLIAITRNPVFPRFIKIIEVKNKKLVELLRRKVRLAQPYVGVFLKRDDSNESDVVESLDEIYHTGTFAQIHEMQDLGDKLRMIVMGHRRVHISRQLEVEPEEPEAENKHKPRRKSKRGKKEAEDELSARHPAELAMEPTPELPAEVLMVEVENVVHEDFQVTEEVKALTAEIVKTIRDIIALNPLYRESVLQMMQAGQRVVDNPIYLSDMGAALTGAESHELQDVLEETNIPKRLYKALSLLKKEFELSKLQQRLGREVEEKIKQTHRKYLLQEQLKIIKKELGLEKDDKDAIEEKFRERLKELVVPKHVMDVVDEELSKLGLLDNHSSEFNVTRNYLDWLTSIPWGKYSNENLDLARAQAVLEEDHYGMEDVKKRILEFIAVSQLRGSTQGKILCFYGPPGVGKTSIARSIARALNREYFRFSVGGMTDVAEIKGHRRTYVGAMPGKIIQCLKKTKTENPLILIDEVDKIGRGYQGDPSSALLELLDPEQNANFLDHYLDVPVDLSKVLFICTANVTDTIPEPLRDRMEMINVSGYVAQEKLAIAERYLVPQARALCGLDESKAKLSSDVLTLLIKQYCRESGVRNLQKQVEKVLRKSAYKIVSGEAESVEVTPENLQDFVGKPVFTVERMYDVTPPGVVMGLAWTAMGGSTLFVETSLRRPQDKDAKGDKDGSLEVTGQLGEVMKESARIAYTFARAFLMQHAPANDYLVTSHIHLHVPEGATPKDGPSAGCTIVTALLSLAMGRPVRQNLAMTGEVSLTGKILPVGGIKEKTIAAKRAGVTCIVLPAENKKDFYDLAAFITEGLEVHFVEHYREIFDIAFPDEQAEALAVER

The next lines start with the molecule.

Row | Molecule | binding [1] | binding [2]
4 | YWHAB (14-3-3 protein) (from UniProt P31946 1-246) | binds | –
5 | Heat Shock Protein Family A (Hsp70) Member 9 (HSPA9) (from UniProt P38646 47-679) | binds | –
6 | YWHAE (14-3-3 protein) (from UniProt P62258 1-255) | binds | –
7 | YWHAG (14-3-3 protein) (protein, UniProt P61981 1-247) MVDREQLVQKARLAEQAERYDDMAAAMKNVTELNEPLSNEERNLLSVAYKNVVGARRSSWRVISSIEQKTSADGNEKKIEMVRAYREKIEKELEAVCQDVLSLLDNYLIKNCSETQYESKVFYLKMKGDYYRYLAEVATGEKRATVVESSEKAYSEAHEISKEHMQPTHPIRLGLALNYSVFYYEIQNAPEQACHLAKTAFDDAIAELDTLNEDSYKDSTLIMQLLRDNLTLWTSDQQDDDGGEGNN | – | binds
8 | YWHAQ (14-3-3 protein) (protein, UniProt P27348 1-245) MEKTELIQKAKLAEQAERYDDMATCMKAVTEQGAELSNEERNLLSVAYKNVVGGRRSAWRVISSIEQKTDTSDKKLQLIKDYREKVESELRSICTTVLELLDKYLIANATNPESKVFYLKMKGDYFRYLAEVACGDDRKQTIDNSQGAYQEAFDISKKEMQPTHPIRLGLALNFSVFYYEILNNPELACTLAKTAFDEAIAELDTLNEDSYKDSTLIMQLLRDNLTLWTSDSAGEECDAAEGAEN | – | binds
9 | YWHAH (14-3-3 protein) (protein, UniProt Q04917 1-246) MGDREQLLQRARLAEQAERYDDMASAMKAVTELNEPLSNEDRNLLSVAYKNVVGARRSSWRVISSIEQKTMADGNEKKLEKVKAYREKIEKELETVCNDVLSLLDKFLIKNCNDFQYESKVFYLKMKGDYYRYLAEVASGEKKNSVVEASEAAYKEAFEISKEQMQPTHPIRLGLALNFSVFYYEIQNAPEQACLLAKQAFDDAIAELDTLNEDSYKDSTLIMQLLRDNLTLWTSDQQDEEAGEGN | – | binds

From publication PMC10897448
